# Screening data, single-dose tests

T. brucei: 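Whole-parasite assay of Trypanosoma brucei over 72 hours; the read-out is not stated. Concentration: 30 µM. The record gives no direction; compounds that gave an IC50 in retests scored well above the rest, so higher reads as stronger inhibition. Values scatter widely below zero; nearly all retest evidence comes from the higher of the two concentrations used. Size under these conditions: about 64,000 compounds, about 940 of them at 50% or above in at least one test.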
Toxoplasma: 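Assay of Toxoplasma gondii numbers, read through their beta-galactosidase reporter with a colour substrate. Tested at 10 µM. The record gives no direction; the compounds picked for IC50 retests had high values, so higher reads as fewer parasites. About 67,000 compounds were tested under these conditions; 0.38% (about 260) showed 50% or more at least once.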

The filed quantity is “Percent Effect” (%).
The record does not define 0% and 100%; most values in the screen are far below 50% and negative numbers occur (in some assays of this library far below -100).
Compounds were drawn at random from those tested, without regard to their results.
A dash means the value is not listed here; it may have been measured.

structure | T. brucei | Toxoplasma
O=C(c1sccc1Br)N(Cc1cccnc1)C1CC1 | 0.7783 | 6.338
O=C(O)C(F)(F)F.c1cnc(N2CCC3(CCCN(Cc4ccncc4)C3)CC2)nc1 | 7.728 | -7.824
CCOCC(O)CN1CCN(C(=O)c2cccnc2OC)CC1 (configuration not stated) | -2.872 | 0.2118
Cc1cc(-c2cnc(NCc3ccccn3)nc2C(C)C)on1 | 94.64 | -30.5
O=c1[nH]c(CN2CCN(CC(F)(F)F)CC2)nc2ccccc12 | 12.04 | 5.08
CN(CCC#N)C(=O)C(C)(C)Oc1ccc(C(N)=O)cc1 | 8.563 | -2.77
Cc1ccc(C)c(S(=O)(=O)NCCNc2ccc(-n3cccc3)nn2)c1 | 16.66 | 6.95
OCC1CCCN1c1cc(NCc2cc3ccccc3o2)ncn1 (configuration not stated) | 6.133 | -13.96
CCCOc1ccc(C(=O)N2C[C@@H](CN3CCCC3)[C@@H](CO)C2)cc1Cl | -3.235 | -2.055
NC(=O)CN1CCCC(c2cncc(Nc3ncccn3)n2)C1 (configuration not stated) | 1.326 | -1.196
Cn1nnc2c1C(COCC1CC1)CN(C(=O)CC1=CCCCC1)C2 (configuration not stated) | -29.7 | 24.57
Cc1ccc(OCc2occc2C(=O)O)cc1 | -54.38 | 6.852
Cc1nc2c(c(N(C)Cc3ccccc3-n3cccn3)n1)CCNCC2 | -22.38 | -0.4483
CN(C(=O)c1ccccc1Cl)C1CCN(c2ccccn2)CC1 | 3.968 | -1.004
Cc1cccc(N2CCN(C(=O)CNCCn3cccn3)CC2)c1 | -38.34 | -3.653
COc1cccc(C2CC(=O)Nc3c2cnn3C(C)(C)C)c1 (configuration not stated) | 14.69 | -11.19
Cc1cc(NC(=O)C(C)Nc2cccc(COCc3ccco3)c2)on1 (configuration not stated) | -20.21 | -12.01
O=S(=O)(CC1CCOCC1)NCc1ccnc(O)c1 | -62.52 | 0.12
CC(C)(C)n1ncc2c(=O)[nH]c(NC3CC=CC3)nc21 | 100.8 | -16.46
Cc1ccc(C(=O)N2CCOC(c3nc(-c4ncccn4)no3)C2)cc1 (configuration not stated) | 4.292 | -10.14
[H][C@@]12CN(S(C)(=O)=O)C[C@]1(C(=O)NC)CCC21CCNCC1 | -31.03 | 23.77
Cc1noc(C)c1C(=O)N1CCCN(Cc2cscn2)CC1 | - | 17.61
CN(Cc1nccn1C)S(=O)(=O)Cc1cccc(C#N)c1 | -25.78 | 7.754
CC(C)OCC(=O)Nc1ccc(Oc2ccc3c(c2)OCO3)nc1 | 7.096 | -
COCc1ccc(C(=O)NCCCNc2ccc(C(F)(F)F)cn2)cc1 | - | -9.072
Cn1ccnc1C(NCc1csc(Br)c1)c1ccccc1 (configuration not stated) | -6.568 | 8.831
COc1ccc(OC)c(-n2cnnc2C)c1 | 13.66 | -0.7506
CCN1CCC2(CC1)CC(Nc1ncccn1)CO2 (configuration not stated) | 20.15 | 18.88
Cc1cnn(CC2CN(Cc3nc4cccnc4[nH]3)CCO2)c1 (configuration not stated) | - | -10.67
O=C(NCC(F)(F)F)NC1CCCc2c1cnn2CCO (configuration not stated) | 3.56 | -1.432
O=C(Nc1ccccc1C(=O)NCCN1CCOCC1)c1ccco1 | -17.34 | -0.3895
CC(=O)N1CCOC(c2ccnc(N(C)C)n2)C1 (configuration not stated) | -11.18 | 18.32
CC(=O)N1N=C(Cc2ccccc2)OC1C(=O)NCC(C)C (configuration not stated) | 17.25 | -9.546
CN(Cc1cccc(C#N)c1)Cn1nc(C(C)(C)C)ccc1=O | 3.788 | -4.205
CCCC(=O)N1CCN(c2cc(-n3cnc(C)c3C)nc(C)n2)CC1 | -37.52 | 6.856
O=C(O)C1(n2ccnc2)CCN(Cc2cc3ccccc3o2)CC1 | 11 | -1.072
Cc1ccccc1CSc1nc(N)cc(N2CC[C@@H](O)C2)n1 | 3.005 | -1.116
COc1ccc(Br)cc1CN(C)c1nc2c(cnn2C)c(=O)[nH]1 | -1.881 | -0.4813
Cc1nn(CC(O)CN2CCc3ccccc3C2)c(=O)c2ccccc12 (configuration not stated) | 5.448 | -4.957
COCC(=O)N1C[C@@H](C)[C@](O)(C(C)C)C1 | -22.79 | -4.356
O=C(c1c(O)cc(F)cc1F)N1CCc2cnccc21 | -42.5 | -1.206
CCc1ccc(CN2CCN(c3ccc(Cl)nn3)CC2)nc1 | -18.52 | 1.243
Cc1nc(N2CCN(C(=O)c3ccsc3)CC2)c2cnn(C)c2n1 | 14.51 | 6.491
CN(C)CCNC(=O)c1ccccc1NC(=O)c1cc(Cl)ccc1Cl | -21.79 | -
CSC(C)CC(=O)N1CCC(n2ccnn2)CC1 (configuration not stated) | -6.913 | 2.67
O=C(O)C(F)(F)F.O=C(O)C(F)(F)F.O=C(O)C(F)(F)F.[H][C@@]12CCC(=O)N(Cc3cccc(C)n3)[C@]1([H])CCN2Cc1nccn1C | 1.655 | 6.386
O=C(O)C(F)(F)F.[H][C@@]12CCN(C(=O)c3cscn3)[C@@]1([H])CCN2C1CCOCC1 | -53.41 | 13.01
Cc1ccccc1-n1cnc(Cl)c1CO | -48.05 | 6.987
Cc1nc(C)n(CC2CCCN2Cc2ccccn2)n1 (configuration not stated) | 5.601 | -3.127
O=C(c1ccoc1)N1CCC2(C1)CN(c1ncccn1)C2 | 0.4232 | 2.93

6 of the entries, repeated:

For Cc1nn(CC(O)CN2CCc3ccccc3C2)c(=O)c2ccccc12 (configuration not stated) the result was T. brucei: 5.448%; Toxoplasma: -4.957%.
For CC(C)OCC(=O)Nc1ccc(Oc2ccc3c(c2)OCO3)nc1 the result was T. brucei: 7.096%.
For Cc1ccc(C)c(S(=O)(=O)NCCNc2ccc(-n3cccc3)nn2)c1 the result was T. brucei: 16.66%; Toxoplasma: 6.95%.
For Cc1ccc(OCc2occc2C(=O)O)cc1 the result was T. brucei: -54.38%; Toxoplasma: 6.852%.
For O=C(O)C(F)(F)F.c1cnc(N2CCC3(CCCN(Cc4ccncc4)C3)CC2)nc1 the result was T. brucei: 7.728%; Toxoplasma: -7.824%.
For O=S(=O)(CC1CCOCC1)NCc1ccnc(O)c1 the result was T. brucei: -62.52%; Toxoplasma: 0.12%.

Data taken from ChEMBL document CHEMBL3988442, “University of Dundee, Small-Polar-MMV Screening Library” (2021).